# Data: PubChem BioAssay AID248 (DTP/NCI, 2004)
# The list is a part of this screen's results and no random one: it is rich in T/C values a quarter to a half above the control, in often repeated tests (any T/C) and in doses without a T/C. Other doses and runs of a compound stand elsewhere. T/C gives the treated animals as a percentage of the vehicle group. Some entries give survivors of the animals treated and no T/C: the source holds a T/C of zero for them, seemingly a mark for toxic or unscored doses. Some doses without a T/C left all or most animals alive at the check, yet need not have been tolerated: survival well below the control is almost never listed, so the zero probably covers shortened survival too. Counts of survivors are from the toxicity check (mostly the fifth day) where no day follows; animals may have died later. Schedules are NCI's codes, taken here to give the interval after Q, in days (D) or hours (H), and the number of doses after X. Where survival is the endpoint, the PubChem record calls one and a half times the control and up active, and a quarter to a half above the control has no call in these data; cut-offs in other NCI protocols can differ. Some T/C values carry the count of animals alive at the toxicity check (mostly the fifth day); without a count, all were alive then.
# Test system: L1210 leukemia ip in BDF1 mice, survival T/C
# Experiment: NCI In Vivo Anticancer Drug Screen. Data for tumor model L1210 Leukemia (intraperitoneal) in B6D2F1 (BDF1) mice
# Conditions: T/C endpoint: mean survival time, higher T/C = longer survival
# [1] = dose: 80.0 mg/kg/injection, schedule: Q01DX009 (ip), vehicle: saline
# [2] = dose: 400.0 mg/kg/injection, schedule: Q01DX001 (ip), vehicle: saline
# [3] = dose: 400.0 mg/kg/injection, schedule: Q04DX003 (ip), vehicle: saline with Tween-80
# [4] = dose: 400.0 mg/kg/injection, schedule: Q04DX002 (ip), vehicle: saline with Tween-80
compound,measurement,setting,value
S=c1nc[nH]c2c1[nH]c(=S)n2CCc1cnc[nH]1,survivor count,"dose: 800.0 mg/kg/injection, schedule: Q01DX001 (ip), vehicle: steroid suspending solution",0 of 6
C(=C\c1cccnc1)/c1ccncc1,survivor count,"dose: 200.0 mg/kg/injection, schedule: Q04DX003 (ip), vehicle: saline with Tween-80",1 of 6
C=CCO[Si](OCC=C)(OCC=C)OCC=C,survivor count,"dose: 300.0 mg/kg/injection, schedule: Q01DX001 (ip), vehicle: other",3 of 6
C[n+]1c2ccccc2cc2ccc(N=[N+]=[N-])cc21,survivor count,"dose: 35.0 mg/kg/injection, schedule: Q04DX003 (ip), vehicle: saline",3 of 6
same,survivor count,"dose: 50.0 mg/kg/injection, schedule: Q01DX001 (ip), vehicle: saline",0 of 6
same,survivor count,"dose: 55.0 mg/kg/injection, schedule: Q01DX009 (ip), vehicle: saline",0 of 6
same,survivor count,"dose: 55.0 mg/kg/injection, schedule: Q04DX003 (ip), vehicle: saline",0 of 6
same,survivor count,[1],0 of 6
same,survivor count,"dose: 80.0 mg/kg/injection, schedule: Q04DX003 (ip), vehicle: saline",0 of 6
same,survivor count,"dose: 100.0 mg/kg/injection, schedule: Q01DX001 (ip), vehicle: saline",1 of 6
same,survivor count,"dose: 200.0 mg/kg/injection, schedule: Q01DX001 (ip), vehicle: saline",0 of 6
same,survivor count,[2],0 of 6
OCCCNc1nc2ccccc2c2ccccc12,survivor count,"dose: 400.0 mg/kg/injection, schedule: Q01DX009 (ip), vehicle: saline",0 of 6
CNc1ncnc(NC)c1[N+](=O)[O-],survivor count,"dose: 400.0 mg/kg/injection, schedule: Q04DX002 (ip), vehicle: Klucel (hydroxypropylcellulose) (HPC)",3 of 3
Cc1cccc2cc3cccc[n+]3cc12,survivor count,"dose: 12.5 mg/kg/injection, schedule: Q01DX009 (ip), vehicle: saline",1 of 6
same,survivor count,"dose: 25.0 mg/kg/injection, schedule: Q04DX003 (ip), vehicle: saline",6 of 6
same,survivor count,"dose: 50.0 mg/kg/injection, schedule: Q04DX003 (ip), vehicle: saline",6 of 6
same,survivor count,"dose: 100.0 mg/kg/injection, schedule: Q04DX003 (ip), vehicle: saline",0 of 6
same,survivor count,"dose: 200.0 mg/kg/injection, schedule: Q04DX003 (ip), vehicle: saline",0 of 6
same,survivor count,"dose: 400.0 mg/kg/injection, schedule: Q04DX003 (ip), vehicle: saline",0 of 6
CC(C)=CCNc1ncnc2c1ncn2C1OC(CO)C(O)C1O (configuration not stated),T/C,"dose: 30.0 mg/kg/injection, schedule: Q01DX009 (ip), vehicle: saline",132 % of control
same,T/C,[1],132 % of control
same,survivor count,"dose: 100.0 mg/kg/injection, schedule: Q01DX015 (ip), vehicle: saline",3 of 6
same,T/C,"dose: 120.0 mg/kg/injection, schedule: Q01DX009 (ip), vehicle: saline",139 % of control
same,T/C,"dose: 150.0 mg/kg/injection, schedule: Q01DX009 (ip), vehicle: saline",128 % of control [5 of 6 alive]
same,T/C,"dose: 180.0 mg/kg/injection, schedule: Q01DX009 (ip), vehicle: saline",125 % of control
same,survivor count,"dose: 200.0 mg/kg/injection, schedule: Q01DX009 (ip), vehicle: saline",1 of 6
same,survivor count,"dose: 200.0 mg/kg/injection, schedule: Q01DX015 (ip), vehicle: saline",0 of 6
same,survivor count,[2],2 of 4
same,survivor count,"dose: 400.0 mg/kg/injection, schedule: Q04DX003 (ip), vehicle: Klucel (hydroxypropylcellulose) (HPC)",3 of 6
same,survivor count,[3],0 of 6
Nc1nc2c(ncn2-c2cccc(-c3ccccc3)c2)c(=O)[nH]1,survivor count,"dose: 100.0 mg/kg/injection, schedule: Q04DX003 (ip), vehicle: saline with Tween-80",6 of 6
same,survivor count,[3],6 of 6
CN(C)c1ccc(/C=C/C(=O)Cc2ccccc2)cc1,survivor count,"dose: 25.0 mg/kg/injection, schedule: Q04DX002 (ip), vehicle: saline with Tween-80",3 of 3
CC[N+](CC)(CC)CC(=O)c1ccc(Br)cc1,survivor count,"dose: 200.0 mg/kg/injection, schedule: Q04DX002 (ip), vehicle: saline with Tween-80",0 of 3
same,survivor count,[4],0 of 3
Cl/C(=C/C=C(c1ccccc1)c1ccccc1)c1ccccc1,survivor count,[4],3 of 3
